For assay [1], the target named is T1, ΔGAG-BG: human betaglycan with double Ser-Ala point mutation at S534 and S545 (no GAG chains) (human) (UniProt Q03167).
T1 sequence: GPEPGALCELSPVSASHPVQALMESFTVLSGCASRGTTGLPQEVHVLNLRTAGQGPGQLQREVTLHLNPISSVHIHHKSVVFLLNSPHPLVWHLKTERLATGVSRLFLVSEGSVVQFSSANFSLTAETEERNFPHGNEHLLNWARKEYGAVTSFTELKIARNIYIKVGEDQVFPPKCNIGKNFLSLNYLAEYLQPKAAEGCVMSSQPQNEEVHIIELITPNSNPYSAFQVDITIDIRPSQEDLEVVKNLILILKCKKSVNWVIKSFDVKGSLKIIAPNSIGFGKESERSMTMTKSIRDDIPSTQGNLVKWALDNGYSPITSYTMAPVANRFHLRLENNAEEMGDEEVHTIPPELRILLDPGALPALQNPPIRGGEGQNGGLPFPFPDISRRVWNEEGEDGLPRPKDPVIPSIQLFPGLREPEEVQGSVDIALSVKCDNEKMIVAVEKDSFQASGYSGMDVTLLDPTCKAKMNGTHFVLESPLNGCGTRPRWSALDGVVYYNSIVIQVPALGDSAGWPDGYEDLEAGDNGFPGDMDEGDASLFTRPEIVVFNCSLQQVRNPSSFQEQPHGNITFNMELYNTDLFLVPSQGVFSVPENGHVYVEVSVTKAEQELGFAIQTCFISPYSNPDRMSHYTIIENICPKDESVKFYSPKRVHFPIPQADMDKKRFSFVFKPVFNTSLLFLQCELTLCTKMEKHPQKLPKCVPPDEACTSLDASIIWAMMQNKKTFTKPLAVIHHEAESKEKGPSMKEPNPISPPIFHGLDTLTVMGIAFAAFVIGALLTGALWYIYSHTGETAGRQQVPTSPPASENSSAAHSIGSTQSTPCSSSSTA
Description: cross-linking + co-IP; affinity binding of [125I]-TGF-β1 to BG FL and ∆GAG mutant expressing cells, immunoprecipitation with anti-BG antibody; receptors seen as labelled bands.

Amino acid sequences for entries named in this document (tags omitted). Residues count along the entry.
UniProt P37173, residues 23-567: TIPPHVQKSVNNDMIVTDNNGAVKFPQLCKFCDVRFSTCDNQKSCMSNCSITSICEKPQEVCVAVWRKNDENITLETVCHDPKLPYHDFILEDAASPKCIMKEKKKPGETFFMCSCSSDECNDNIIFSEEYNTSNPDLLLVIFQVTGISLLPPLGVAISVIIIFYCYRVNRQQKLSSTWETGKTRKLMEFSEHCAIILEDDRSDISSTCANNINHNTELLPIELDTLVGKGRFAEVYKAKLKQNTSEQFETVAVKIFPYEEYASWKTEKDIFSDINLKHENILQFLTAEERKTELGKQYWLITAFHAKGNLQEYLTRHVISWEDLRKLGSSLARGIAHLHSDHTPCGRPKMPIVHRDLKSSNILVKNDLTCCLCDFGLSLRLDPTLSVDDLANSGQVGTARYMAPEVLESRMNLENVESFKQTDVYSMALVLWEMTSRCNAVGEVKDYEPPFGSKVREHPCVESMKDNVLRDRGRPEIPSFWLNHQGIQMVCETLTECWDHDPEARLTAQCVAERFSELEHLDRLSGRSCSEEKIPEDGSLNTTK
UniProt P01137, residues 279-390: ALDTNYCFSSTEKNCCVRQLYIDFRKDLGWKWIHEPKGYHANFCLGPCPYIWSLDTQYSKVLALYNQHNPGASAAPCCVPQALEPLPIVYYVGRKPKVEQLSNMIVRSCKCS

Assay [2] concerns the target T1, ΔGAG-BG: human betaglycan with double Ser-Ala point mutation at S534 and S545 (no GAG chains) (human). Description: radioligand binding + cross-linking; 100 pM [125I]-TGF-β1 bound and crosslinked to cell surface receptors in a cold room, HEPES-KRH buffer pH 7.4; total cell lysates or immunoprecipitation with anti-BG antibody, SDS-PAGE, autoradiography; only the binder purified.

Assay [3] deals with T2, S545A (HS-BG): human betaglycan single GAG attachment site mutant (human) (UniProt Q03167).
T2 sequence (chain, heparan sulfate glycosaminoglycan chains (lost after heparinase III digestion)): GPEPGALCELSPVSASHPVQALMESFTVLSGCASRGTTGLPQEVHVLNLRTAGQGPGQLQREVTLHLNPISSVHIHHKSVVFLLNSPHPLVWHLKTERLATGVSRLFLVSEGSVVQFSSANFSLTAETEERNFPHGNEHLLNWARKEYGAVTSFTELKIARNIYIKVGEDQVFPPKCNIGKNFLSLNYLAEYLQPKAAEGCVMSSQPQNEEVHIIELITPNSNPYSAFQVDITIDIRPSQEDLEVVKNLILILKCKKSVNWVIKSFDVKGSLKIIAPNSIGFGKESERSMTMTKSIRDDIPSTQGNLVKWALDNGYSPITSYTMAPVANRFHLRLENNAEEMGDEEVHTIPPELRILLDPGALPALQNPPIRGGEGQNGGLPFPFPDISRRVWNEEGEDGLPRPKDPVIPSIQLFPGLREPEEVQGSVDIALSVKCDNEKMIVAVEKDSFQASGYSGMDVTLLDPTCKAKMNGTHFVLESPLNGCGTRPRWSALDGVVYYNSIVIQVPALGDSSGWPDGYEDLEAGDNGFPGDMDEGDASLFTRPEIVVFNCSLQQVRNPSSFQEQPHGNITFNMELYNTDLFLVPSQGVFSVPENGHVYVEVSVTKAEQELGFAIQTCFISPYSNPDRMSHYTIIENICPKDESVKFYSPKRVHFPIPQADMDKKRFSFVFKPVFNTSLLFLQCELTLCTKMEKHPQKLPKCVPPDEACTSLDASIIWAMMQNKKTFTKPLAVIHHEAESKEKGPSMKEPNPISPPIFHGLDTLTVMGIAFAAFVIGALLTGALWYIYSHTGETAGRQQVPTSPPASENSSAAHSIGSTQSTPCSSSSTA
The assay is described as above.

The target in assay [4] is T3, Ascites-derived soluble betaglycan of ovarian cancer patients (human (endogenous in patient ascites fluid)) (UniProt Q03167).
T3 sequence (chain, HS and CS glycosaminoglycan chains): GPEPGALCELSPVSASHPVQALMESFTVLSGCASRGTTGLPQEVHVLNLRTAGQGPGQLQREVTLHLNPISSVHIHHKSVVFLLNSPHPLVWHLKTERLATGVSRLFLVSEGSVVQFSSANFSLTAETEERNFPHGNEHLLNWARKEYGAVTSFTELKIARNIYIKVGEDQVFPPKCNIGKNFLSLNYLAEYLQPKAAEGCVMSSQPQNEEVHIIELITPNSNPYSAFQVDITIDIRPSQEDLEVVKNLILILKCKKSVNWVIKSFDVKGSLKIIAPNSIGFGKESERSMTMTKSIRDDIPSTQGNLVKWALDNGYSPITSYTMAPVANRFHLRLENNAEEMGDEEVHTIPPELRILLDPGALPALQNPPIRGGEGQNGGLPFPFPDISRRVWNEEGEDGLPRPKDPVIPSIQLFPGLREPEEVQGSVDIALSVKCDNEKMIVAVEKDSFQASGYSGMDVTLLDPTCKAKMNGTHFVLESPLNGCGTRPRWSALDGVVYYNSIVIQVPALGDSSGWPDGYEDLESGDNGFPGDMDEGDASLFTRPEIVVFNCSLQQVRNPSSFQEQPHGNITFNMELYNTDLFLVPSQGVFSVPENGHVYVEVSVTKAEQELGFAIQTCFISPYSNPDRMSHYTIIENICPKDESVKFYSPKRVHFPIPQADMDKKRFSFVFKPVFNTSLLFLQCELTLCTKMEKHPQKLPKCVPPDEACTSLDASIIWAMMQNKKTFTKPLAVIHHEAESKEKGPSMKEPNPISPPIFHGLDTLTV
Description: radioligand binding + cross-linking; patient ascites fluid, [125I]-TGF-β1 binding and crosslinking, immunoprecipitation with anti-BG antibody, autoradiography; only the binder purified.

Assay [5] concerns the target T4, Shed-BG from FL-BG expressing cells (soluble betaglycan ectodomain, GAG modified) (human) (UniProt Q03167).
T4 sequence (chain, glycosaminoglycan chains (forms ranging from 90 to 250 kDa)): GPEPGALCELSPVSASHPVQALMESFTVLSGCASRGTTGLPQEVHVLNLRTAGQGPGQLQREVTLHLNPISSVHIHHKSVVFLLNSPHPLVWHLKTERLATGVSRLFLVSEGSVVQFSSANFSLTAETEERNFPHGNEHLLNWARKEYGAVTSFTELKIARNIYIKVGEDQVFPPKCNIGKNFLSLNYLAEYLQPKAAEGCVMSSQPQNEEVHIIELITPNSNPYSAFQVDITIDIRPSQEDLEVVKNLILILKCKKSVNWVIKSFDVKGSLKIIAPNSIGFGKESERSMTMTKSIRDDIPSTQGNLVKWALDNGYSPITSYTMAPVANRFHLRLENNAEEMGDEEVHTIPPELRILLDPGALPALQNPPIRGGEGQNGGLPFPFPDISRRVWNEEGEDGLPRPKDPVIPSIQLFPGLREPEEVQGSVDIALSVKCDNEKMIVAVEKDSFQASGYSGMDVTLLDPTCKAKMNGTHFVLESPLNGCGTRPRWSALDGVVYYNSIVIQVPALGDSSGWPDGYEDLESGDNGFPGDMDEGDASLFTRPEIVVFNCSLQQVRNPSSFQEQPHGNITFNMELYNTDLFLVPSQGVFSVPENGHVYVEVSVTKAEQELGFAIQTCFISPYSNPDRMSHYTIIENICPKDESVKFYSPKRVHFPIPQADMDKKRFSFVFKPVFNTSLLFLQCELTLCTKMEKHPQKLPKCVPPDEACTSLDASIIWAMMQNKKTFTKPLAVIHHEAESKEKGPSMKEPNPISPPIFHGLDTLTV
Description: radioligand binding + cross-linking; conditioned media directly labeled with 200 pM [125I]-TGF-β1, washing steps omitted, crosslinking, immunoprecipitation with anti-BG antibody, autoradiography; only the binder purified.

The target of assay [6] is T5, Shed-BG from ΔGAG-BG expressing cells (soluble betaglycan ectodomain without GAG chains) (human) (UniProt Q03167).
T5 sequence: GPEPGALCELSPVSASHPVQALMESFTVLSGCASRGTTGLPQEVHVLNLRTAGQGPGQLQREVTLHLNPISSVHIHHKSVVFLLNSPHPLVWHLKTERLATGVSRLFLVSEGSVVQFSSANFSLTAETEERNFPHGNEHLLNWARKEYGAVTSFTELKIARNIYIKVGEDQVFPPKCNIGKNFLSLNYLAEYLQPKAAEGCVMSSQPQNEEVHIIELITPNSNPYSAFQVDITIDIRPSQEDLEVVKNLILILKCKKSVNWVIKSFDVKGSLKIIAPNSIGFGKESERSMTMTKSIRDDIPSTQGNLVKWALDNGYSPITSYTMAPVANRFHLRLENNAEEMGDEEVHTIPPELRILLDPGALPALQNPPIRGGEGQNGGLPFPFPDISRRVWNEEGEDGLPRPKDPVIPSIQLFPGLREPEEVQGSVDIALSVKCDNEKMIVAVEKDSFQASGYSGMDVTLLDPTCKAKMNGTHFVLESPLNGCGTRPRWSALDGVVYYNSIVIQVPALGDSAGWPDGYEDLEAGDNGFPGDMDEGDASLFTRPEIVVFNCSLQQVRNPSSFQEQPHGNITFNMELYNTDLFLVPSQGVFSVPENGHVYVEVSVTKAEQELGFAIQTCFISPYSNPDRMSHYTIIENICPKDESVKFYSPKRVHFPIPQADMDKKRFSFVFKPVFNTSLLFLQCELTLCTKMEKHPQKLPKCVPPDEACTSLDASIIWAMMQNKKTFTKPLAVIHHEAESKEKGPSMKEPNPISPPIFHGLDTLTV
Described as above.

Among the data in article PMC10870443 are binding values, retold here.

These are yes or no findings as the source states them, for the method shown. In cells and extracts the contact can be indirect. Some results given as binding are weak or reduced against the parent protein; the word gives no strength. Sequences can lack the tags named with a protein.

As to “TGF-βRII (type II TGF-β receptor) (from UniProt P37173 23-567)”, in assay [1], the binding entry was “binds”.
With “[125I]-Bolton-Hunter labeled Transforming Growth Factor-β1 (Human, Recombinant) (from UniProt P01137 279-390) (ligand)”, the binding entry in assay [2], in assay [3], in assay [4], in assay [5] and in assay [6] was “binds” throughout.

B1: TGF-βRI (type-I TGF-β receptor) (receptor, UniProt P36897 34-503)
chain: LQCFCHLCTKDNFTCVTDGLCFVSVTETTDKVIHNSMCIAEIDLIPRDRPFVCAPSSKTGSVTTTYCCNQDHCNKIELPTTVKSSPGLGPVELAAVIAGPVCFVCISLMLMVYICHNRTVIHHRVPNEEDPSLDRPFISEGTTLKDLIYDMTTSGSGSGLPLLVQRTIARTIVLQESIGKGRFGEVWRGKWRGEEVAVKIFSSREERSWFREAEIYQTVMLRHENILGFIAADNKDNGTWTQLWLVSDYHEHGSLFDYLNRYTVTVEGMIKLALSTASGLAHLHMEIVGTQGKPAIAHRDLKSKNILVKKNGTCCIADLGLAVRHDSATDTIDIAPNHRVGTKRYMAPEVLDDSINMKHFESFKRADIYAMGLVFWEIARRCSIGGIHEDYQLPYYDLVPSDPSVEEMRKVVCEQKLRPNIPNRWQSCEALRVMAKIMRECWYANGAARLTALRIKKTLSQLSQQEGIKM
Turning to B1, in assay [1], the binding entry is given as “binds”.
